According to paper PMC5506012:
Read-outs that look alike come from different tables or passages of the source. No constants are given. Whether binding was seen depends on the method and setting. In cells and extracts the contact can be indirect. Some entries that bind do so weakly or less than the wild type.

Sequences of proteins named here, by UniProt entry; tags and fusion partners are left off. Residues count along the entry.
UniProt P84903, residues 23-685: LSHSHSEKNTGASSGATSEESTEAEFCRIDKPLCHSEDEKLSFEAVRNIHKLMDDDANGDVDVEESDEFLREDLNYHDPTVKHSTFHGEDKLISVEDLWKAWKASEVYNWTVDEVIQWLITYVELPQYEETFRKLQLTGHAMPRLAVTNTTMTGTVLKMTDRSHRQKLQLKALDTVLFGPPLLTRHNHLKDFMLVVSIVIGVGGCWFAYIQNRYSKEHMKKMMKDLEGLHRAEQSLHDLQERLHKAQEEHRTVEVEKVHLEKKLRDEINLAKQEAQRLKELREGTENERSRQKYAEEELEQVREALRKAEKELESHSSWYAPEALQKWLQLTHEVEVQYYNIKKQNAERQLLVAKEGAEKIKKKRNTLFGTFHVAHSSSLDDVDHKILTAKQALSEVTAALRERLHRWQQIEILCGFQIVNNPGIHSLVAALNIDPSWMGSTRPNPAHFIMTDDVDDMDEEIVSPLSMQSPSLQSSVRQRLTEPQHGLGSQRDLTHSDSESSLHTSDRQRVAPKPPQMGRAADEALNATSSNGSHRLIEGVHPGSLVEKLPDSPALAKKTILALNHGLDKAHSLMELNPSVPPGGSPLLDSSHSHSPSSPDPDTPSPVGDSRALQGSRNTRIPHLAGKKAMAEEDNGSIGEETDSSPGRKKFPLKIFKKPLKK
UniProt Q5M848: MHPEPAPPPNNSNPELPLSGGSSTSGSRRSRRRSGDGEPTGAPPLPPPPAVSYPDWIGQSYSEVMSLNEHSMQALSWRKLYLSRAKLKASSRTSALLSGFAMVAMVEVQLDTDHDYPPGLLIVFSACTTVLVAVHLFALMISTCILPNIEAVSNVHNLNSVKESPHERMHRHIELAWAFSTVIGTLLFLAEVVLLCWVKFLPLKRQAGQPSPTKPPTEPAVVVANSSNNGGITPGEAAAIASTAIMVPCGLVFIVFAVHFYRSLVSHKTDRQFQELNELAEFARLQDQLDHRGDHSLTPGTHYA
UniProt Q9QX01: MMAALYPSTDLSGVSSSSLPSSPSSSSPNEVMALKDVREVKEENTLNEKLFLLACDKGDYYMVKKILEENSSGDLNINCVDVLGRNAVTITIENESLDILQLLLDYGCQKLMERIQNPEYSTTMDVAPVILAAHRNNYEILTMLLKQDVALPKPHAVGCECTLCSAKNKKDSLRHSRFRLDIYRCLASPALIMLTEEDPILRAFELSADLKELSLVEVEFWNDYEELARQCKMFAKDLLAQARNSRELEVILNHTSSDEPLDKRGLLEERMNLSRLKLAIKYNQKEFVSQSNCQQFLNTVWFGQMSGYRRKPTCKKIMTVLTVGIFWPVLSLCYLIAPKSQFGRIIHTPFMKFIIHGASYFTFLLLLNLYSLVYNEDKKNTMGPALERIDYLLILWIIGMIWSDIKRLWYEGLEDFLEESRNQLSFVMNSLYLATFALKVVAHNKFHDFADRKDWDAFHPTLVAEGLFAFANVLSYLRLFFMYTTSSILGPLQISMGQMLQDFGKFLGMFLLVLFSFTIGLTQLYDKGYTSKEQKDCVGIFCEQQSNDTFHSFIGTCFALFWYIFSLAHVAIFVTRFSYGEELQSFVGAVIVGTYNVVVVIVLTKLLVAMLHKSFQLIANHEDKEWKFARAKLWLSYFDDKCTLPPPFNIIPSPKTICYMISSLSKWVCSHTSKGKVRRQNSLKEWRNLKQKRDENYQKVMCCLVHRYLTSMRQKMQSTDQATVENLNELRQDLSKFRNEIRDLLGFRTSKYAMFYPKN
UniProt O35119: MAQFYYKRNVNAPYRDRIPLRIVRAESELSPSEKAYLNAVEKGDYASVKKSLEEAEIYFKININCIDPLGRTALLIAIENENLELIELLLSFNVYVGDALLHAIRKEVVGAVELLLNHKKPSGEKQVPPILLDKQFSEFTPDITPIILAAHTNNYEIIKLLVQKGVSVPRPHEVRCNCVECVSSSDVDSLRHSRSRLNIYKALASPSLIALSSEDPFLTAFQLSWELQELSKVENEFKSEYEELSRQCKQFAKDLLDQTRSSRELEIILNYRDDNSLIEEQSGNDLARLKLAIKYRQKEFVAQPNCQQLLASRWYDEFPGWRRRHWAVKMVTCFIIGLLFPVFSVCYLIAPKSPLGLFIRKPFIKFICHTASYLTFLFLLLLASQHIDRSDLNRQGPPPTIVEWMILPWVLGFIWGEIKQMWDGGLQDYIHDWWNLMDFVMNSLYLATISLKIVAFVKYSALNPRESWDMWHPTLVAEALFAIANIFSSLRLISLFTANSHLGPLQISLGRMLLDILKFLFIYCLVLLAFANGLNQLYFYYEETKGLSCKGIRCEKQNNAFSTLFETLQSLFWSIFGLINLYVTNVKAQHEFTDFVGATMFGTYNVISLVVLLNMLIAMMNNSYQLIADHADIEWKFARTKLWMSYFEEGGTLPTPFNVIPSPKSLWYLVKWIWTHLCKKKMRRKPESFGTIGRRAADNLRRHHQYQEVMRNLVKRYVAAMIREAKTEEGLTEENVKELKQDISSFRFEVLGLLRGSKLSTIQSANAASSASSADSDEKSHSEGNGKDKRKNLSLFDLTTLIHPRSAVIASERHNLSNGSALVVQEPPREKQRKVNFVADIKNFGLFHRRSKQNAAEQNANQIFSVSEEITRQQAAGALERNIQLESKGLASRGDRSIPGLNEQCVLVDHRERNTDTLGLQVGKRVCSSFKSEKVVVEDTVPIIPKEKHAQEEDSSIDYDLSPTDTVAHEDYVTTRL

T1: Homer1 (rat (endogenous in rat carotid artery)) (UniProt Q9Z214)
T1 sequence: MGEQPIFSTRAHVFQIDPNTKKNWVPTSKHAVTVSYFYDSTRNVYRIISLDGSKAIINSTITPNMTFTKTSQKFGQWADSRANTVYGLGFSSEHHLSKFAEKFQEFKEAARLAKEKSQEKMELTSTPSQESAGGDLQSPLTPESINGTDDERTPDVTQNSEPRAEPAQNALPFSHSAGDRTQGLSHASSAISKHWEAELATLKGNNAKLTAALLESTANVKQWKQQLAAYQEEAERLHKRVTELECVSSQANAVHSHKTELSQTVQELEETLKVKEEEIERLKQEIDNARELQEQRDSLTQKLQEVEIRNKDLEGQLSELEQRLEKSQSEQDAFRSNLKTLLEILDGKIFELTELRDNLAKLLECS

B1: TRPC3 (protein, UniProt Q9JMI9 1-909)
chain: MSTKVKKCREPARVTLPAPEEEDGEAEGAEPQRRRRGWRGVNGGLEPPCPRAPPSPGPDASSEGSPSRWRTAGMRDKGRRQAVRGPAFMFGARGPSLTAEEERFLDAAEYGNIPVVRKMLEESRTLNVNCVDYMGQNALQLAVGNEHLEVTELLLKKENLARIGDALLLAISKGYVRIVEAILGHPGFAASRRLTLSPCEQELRDDDFYAYDEDGTRFSPDITPIILAAHCHKYEVVHLLLLKGARIERPHDYFCRCADCAEKQRLDAFSHSRSRINAYKGLASPAYLSLSSEDPVLTALELSNELAKLANIEKEFKNDYRKLSMQCKDFVVGVLDLCRDSEEVEAILNGDLESVEPLERHGHKASLSRVKLAIKYEVKKFVAHPNCQQQLLTIWYENLSGLREQTIAIKCLVVLVVALGLPFLAIGYWIAPCSRLGKILRSPFMKFVAHAASFIIFLGLLVFNASDRFEGITTLPNITVIDYPKQIFRVKTTQFTWTEMLIMVWVLGMMWSECKELWLEGPREYIVQLWNVLDFGMLSIFIAAFTARFLAFLQATKAQQYVDSHVQESDLSEVTLPPEVQYFTYARDKWLPSDPQIISEGLYAIAVVLSFSRIAYILPANESFGPLQISLGRTVKDIFKFMVLFIMVFLAFMIGMFILYSYYLGAKVNPAFTTVEESFKTLFWSIFGLSEVTSVVLKYDHKFIENIGYVLYGIYNVTMVVVLLNMLIAMINSSYQEIEDDSDVEWKFARSKLWLSYFDDGKTLPPPFSLVPSPKSFVYFIMRITNFSKCRRRRLQKDLELGMGNSKSRLNLFTQSNSRVFESHSFNSILNQPTRYQQIMKRLIKRYVLKAQVDKENDEVNEGELKEIKQDISSLRYELLEDKSQATEELAILIHKLSEKLNPSALRCE
B2: TRPC6 (protein, UniProt Q99N78 1-930)
chain: MSQSPGFVTRRGGSPKAAPGAGARRNESQDYLLMDELGDDGYPQLQQPPYGYYPSFRGNENRLTHRRQTVLREKGRRLANRGPAYMFNDHSTSLSIEEERFLDAAEYGNIPVVRKMLEECLSLNVNCVDYMGQNALQLAVANEHLEITELLLKKENLSRVGDALLLAISKGYVRIVEAILNHPAFAEGKRLATSPSQSELQQDDFYAYDEDGTRFSHDVTPIILAAHCQEYEIVHTLLRKGARIERPHDYFCKCTECSQKQKHDSFSHSRSRINAYKGLASPAYLSLSSEDPVMTALELSNELAVLANIEKEFKNDYRKLSMQCKDFVVGLLDLCRNTEEVEAILNGDAETRQPGDLARPNLSRLKLAIKYEVKKFVAHPNCQQQLLSIWYENLSGLRQQTMAVKFLVVLAVAIGLPFLALIYWCAPCSKMGKILRGPFMKFVAHAASFTIFLGLLVMNAADRFEGTKLLPNETSTDNARQLFRMKTSCFSWMEMLIISWVIGMIWAECKEIWTQGPKEYLFELWNMLDFGMLAIFAASFIARFMAFWHASKAQSIIDANDTLKDLTKVTLGDNVKYYNLARIKWDPTDPQIISEGLYAIAVVLSFSRIAYILPANESFGPLQISLGRTVKDIFKFMVIFIMVFVAFMIGMFNLYSYYIGAKQNEAFTTVEESFKTLFWAIFGLSEVKSVVINYNHKFIENIGYVLYGVYNVTMVIVLLNMLIAMINSSFQEIEDDADVEWKFARAKLWFSYFEEGRTLPVPFNLVPSPKSLLYLLLKFKKWMSELIQGHKKGFQEDAEMNKRNEEKKFGILGSHEDLSKFSLDRNQLAHNKQSSTRSSEDFHLNSFSNPPRQYQKIMKRLIKRYVLQAQIDKESDEVNEGELKEIKQDISSLRYELLEEKSQNTEDLAELIRKLGERLSLESKQEESRR

Assays:
[1] = target: STIM1 (rat (endogenous in rat carotid artery)) (UniProt P84903); assay: co-IP; anti-STIM1 antibody (1 ug) added to 100 ul extract of media + neointima of balloon-injured (14 days) and uninjured rat carotid arteries, RIPA buffer, 2 h at 4 °C; protein A Sepharose 4B or Protein G Plus Agarose beads; Western blot of the partners
[2] = target: T1, Homer1 (rat (endogenous in rat carotid artery)); assay: co-IP; anti-Homer1 antibody (1 ug) added to 100 ul extract of media + neointima of balloon-injured (14 days) and uninjured rat carotid arteries, RIPA buffer, 2 h at 4 °C; protein A Sepharose 4B or Protein G Plus Agarose beads; Western blot of the partners
[3] = target: STIM1 (rat (endogenous in rat carotid artery)) (UniProt P84903); assay: co-IP; anti-STIM1 antibody (1 ug) added to 100 ul extract of media + neointima of balloon-injured (14 days) and uninjured rat carotid arteries, RIPA buffer, 2 h at 4 °C; protein A Sepharose 4B or Protein G Plus Agarose beads; Western blot of the partners; remark: listed apart in the source

Row | Molecule | binding [1] | binding [2] | binding [3]
1 | Orai1 (from UniProt Q5M848 1-304) | binds | binds | 
2 | TRPC1 (from UniProt Q9QX01 1-759) | binds | binds | 
3 | TRPC4 (from UniProt O35119 1-977) | binds | binds | 
4 | B1 |  | binds | binds
5 | B2 |  | binds | binds
